Test results from patent US8916586B2, “Anti-angiogenic compound” (University College Dublin—National University of Ireland, …, priority 2011, dated 2014).
Some results were stated once for a whole list of compounds, not compound by compound.

Test system: dermal-derived normal human microvascular endothelial cells (HMVEC-d)
Assay: In vitro HMVEC-d tube formation assay on Matrigel
Assay type: cell-based
Conditions: 100 nM, 20 hr
Experimental: HMVEC-d were purchased from Clonetics, San Diego, Calif., USA. Cells were maintained in complete Endothelial Cell Medium (Clonetics® EGM®-2-MV BulletKit®) containing 500 ml of Endothelial Cell Basal Medium-2 and supplemented with hEGF, 0.5 ml; Hydrocortisone, 0.2 ml; GA-1000, 0.5 ml; FBS, 25 ml; VEGF, 0.5 ml; hFGF-B, 2.0 ml; R3-IGF-1, 0.5 ml; Ascorbic Acid, 0.5 ml in a 37° C. humidified atmosphere of 5% CO2/95% air. HMVEC-d were used for experiments between passages 4-8.
Matrigel (Becton Dickenson) basement membrane matrix was used to examine HMVEC-d tube formation. Matrigel (50 μl) was plated in 96 well culture plate wells after thawing on ice and allowed to polymerise at 37° C. 5% CO2 humidified atmosphere for 1 hr. HMVEC-d were removed from culture, trypsinised, and resuspended in full strength EGM growth medium. Cells were seeded at a density of 50×10^4 cells/cm^2 and incubated for 20 hr at 37° C. 5% CO2 humidified atmosphere. Endothelial cell tubule formation was assessed using phase contrast microscopy and photographed. A connecting branch between two discrete ECs was counted as one tube. The tube analysis was determined from 3 sequential fields (magnification×10) focusing on the surface of the matrigel.

Question: With Oc1ccccc1/C=C/c1ccc2ccccc2n1 [11B] as the compound, how does the “reduction of tubule formation compared to control” value read?
Answer: Its value is 20-24%.
